Measured values as given in paper PMC12677674.
No constants are given. Whether binding was seen depends on the method and setting. Binding seen in cells or lysates may run through a third protein. Some results given as binding are weak or reduced against the parent protein; the word gives no strength.

By UniProt entry, the sequences of proteins in these tests, tags left out.
UniProt P52332: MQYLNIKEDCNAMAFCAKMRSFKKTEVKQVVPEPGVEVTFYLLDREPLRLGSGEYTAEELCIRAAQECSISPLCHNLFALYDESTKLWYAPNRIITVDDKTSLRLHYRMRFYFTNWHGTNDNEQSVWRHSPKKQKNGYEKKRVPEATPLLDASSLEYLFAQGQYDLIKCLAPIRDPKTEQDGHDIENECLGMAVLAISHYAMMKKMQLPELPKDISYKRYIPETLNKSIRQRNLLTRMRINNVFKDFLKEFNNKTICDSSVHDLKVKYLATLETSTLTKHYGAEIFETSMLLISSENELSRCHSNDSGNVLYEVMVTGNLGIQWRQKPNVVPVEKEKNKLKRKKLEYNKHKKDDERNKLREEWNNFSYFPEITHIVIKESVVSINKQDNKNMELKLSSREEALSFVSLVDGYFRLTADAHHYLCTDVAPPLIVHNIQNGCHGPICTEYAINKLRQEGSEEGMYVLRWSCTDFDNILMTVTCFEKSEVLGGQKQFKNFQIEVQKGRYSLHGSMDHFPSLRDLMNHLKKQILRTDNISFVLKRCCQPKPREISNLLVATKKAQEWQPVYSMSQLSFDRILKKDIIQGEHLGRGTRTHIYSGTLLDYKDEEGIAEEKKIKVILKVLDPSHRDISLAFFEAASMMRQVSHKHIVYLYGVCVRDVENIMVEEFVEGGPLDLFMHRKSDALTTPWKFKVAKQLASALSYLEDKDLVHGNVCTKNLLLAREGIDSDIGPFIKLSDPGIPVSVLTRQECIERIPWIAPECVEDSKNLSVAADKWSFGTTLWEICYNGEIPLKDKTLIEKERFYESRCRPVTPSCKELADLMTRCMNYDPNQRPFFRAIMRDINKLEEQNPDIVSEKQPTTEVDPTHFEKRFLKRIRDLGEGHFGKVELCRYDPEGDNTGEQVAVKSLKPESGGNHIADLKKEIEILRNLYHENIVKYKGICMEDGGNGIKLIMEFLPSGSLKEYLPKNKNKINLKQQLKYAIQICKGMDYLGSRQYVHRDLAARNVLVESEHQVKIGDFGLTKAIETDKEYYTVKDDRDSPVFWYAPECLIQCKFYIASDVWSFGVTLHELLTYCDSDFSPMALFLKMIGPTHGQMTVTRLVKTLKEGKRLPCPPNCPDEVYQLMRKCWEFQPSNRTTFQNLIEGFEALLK
UniProt Q9R117: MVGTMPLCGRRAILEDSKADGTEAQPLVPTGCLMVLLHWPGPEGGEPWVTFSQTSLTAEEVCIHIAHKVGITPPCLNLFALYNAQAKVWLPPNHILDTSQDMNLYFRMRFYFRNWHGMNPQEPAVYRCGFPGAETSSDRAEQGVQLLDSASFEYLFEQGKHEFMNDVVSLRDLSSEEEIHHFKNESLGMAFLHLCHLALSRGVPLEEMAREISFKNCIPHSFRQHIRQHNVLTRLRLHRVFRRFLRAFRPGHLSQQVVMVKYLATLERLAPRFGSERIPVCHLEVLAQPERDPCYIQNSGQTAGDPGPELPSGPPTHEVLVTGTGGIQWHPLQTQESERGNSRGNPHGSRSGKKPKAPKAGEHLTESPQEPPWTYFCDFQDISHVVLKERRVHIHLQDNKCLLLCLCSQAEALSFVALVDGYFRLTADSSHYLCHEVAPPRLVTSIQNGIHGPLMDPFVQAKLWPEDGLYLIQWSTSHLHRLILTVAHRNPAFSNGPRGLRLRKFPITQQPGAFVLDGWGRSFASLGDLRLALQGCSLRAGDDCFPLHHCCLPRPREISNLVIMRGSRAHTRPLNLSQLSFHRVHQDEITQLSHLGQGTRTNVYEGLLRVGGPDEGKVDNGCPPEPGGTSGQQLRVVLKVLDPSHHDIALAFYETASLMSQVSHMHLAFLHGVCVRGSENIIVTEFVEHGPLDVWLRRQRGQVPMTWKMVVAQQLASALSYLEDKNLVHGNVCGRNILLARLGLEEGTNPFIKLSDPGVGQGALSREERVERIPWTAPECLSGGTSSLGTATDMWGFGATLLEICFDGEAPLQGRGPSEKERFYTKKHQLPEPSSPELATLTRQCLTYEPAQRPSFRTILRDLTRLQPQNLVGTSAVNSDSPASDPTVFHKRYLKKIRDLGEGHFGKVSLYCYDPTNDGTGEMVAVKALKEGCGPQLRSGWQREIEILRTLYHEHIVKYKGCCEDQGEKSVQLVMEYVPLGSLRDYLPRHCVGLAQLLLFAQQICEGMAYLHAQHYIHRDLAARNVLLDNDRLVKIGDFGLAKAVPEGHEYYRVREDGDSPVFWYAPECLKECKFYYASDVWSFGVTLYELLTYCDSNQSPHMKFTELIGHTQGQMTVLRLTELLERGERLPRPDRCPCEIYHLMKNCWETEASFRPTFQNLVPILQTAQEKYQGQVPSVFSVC
UniProt Q62120: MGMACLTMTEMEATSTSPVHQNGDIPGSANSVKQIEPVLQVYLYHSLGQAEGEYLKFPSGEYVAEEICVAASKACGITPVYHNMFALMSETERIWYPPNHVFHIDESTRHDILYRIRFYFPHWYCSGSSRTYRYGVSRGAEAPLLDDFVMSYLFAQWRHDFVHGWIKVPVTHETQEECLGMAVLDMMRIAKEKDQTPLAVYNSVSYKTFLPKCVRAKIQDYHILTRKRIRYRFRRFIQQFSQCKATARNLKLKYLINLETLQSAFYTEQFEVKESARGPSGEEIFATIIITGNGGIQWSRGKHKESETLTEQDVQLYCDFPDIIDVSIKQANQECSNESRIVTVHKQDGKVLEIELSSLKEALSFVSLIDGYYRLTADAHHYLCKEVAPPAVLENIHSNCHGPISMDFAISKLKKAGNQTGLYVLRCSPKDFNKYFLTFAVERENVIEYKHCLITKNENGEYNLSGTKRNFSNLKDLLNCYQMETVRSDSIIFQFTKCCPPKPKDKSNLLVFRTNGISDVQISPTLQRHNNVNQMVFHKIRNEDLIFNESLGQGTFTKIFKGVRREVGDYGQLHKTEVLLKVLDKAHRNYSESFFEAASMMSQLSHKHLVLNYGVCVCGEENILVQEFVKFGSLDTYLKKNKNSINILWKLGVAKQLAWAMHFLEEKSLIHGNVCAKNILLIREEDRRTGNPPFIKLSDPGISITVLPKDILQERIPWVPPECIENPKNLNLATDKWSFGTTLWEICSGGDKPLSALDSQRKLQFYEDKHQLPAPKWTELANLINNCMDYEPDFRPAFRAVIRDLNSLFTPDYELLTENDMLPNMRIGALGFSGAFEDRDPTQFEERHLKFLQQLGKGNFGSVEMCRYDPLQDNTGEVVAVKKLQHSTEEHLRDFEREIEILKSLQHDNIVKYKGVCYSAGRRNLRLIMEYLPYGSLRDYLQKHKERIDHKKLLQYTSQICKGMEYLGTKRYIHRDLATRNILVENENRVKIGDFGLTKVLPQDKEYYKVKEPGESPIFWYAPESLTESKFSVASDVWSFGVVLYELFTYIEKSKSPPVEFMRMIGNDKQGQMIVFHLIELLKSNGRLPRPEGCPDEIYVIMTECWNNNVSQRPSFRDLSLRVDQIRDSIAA

T1: Receptor-interacting serine/threonine-protein kinase 1 (mouse (endogenous in MLE-12)) (UniProt Q60855)
T1 sequence: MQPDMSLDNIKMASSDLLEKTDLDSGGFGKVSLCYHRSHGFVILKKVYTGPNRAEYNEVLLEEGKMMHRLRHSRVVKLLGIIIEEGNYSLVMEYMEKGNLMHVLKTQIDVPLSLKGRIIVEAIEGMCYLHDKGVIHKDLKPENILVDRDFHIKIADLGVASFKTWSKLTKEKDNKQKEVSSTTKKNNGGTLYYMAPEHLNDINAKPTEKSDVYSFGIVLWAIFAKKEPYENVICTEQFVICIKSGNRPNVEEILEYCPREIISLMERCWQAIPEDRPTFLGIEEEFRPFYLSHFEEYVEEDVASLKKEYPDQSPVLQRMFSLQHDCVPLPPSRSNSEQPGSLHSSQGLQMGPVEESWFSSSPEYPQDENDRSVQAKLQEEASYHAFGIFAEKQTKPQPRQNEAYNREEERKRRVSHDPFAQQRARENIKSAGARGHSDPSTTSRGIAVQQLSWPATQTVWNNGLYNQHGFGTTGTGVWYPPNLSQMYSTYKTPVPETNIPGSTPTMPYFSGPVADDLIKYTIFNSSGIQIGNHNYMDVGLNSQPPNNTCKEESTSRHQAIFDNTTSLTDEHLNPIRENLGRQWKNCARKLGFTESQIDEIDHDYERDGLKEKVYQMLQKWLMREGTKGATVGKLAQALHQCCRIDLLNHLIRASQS

B1: JAK3 (protein, UniProt Q62137 1-1100)
chain: MAPPSEETPLIPQRSCSLSSSEAGALHVLLPPRGPGPPQRLSFSFGDYLAEDLCVRAAKACGILPVYHSLFALATEDFSCWFPPSHIFCIEDVDTQVLVYRLRFYFPDWFGLETCHRFGLRKDLTSAILDLHVLEHLFAQHRSDLVSGRLPVGLSMKEQGEFLSLAVLDLAQMAREQAQRPGELLKTVSYKACLPPSLRDVIQGQNFVTRRRIRRTVVLALRRVVACQADRYALMAKYILDLERLHPAATTETFRVGLPGAQEEPGLLRVAGDNGISWSSGDQELFQTFCDFPEIVDVSIKQAPRVGPAGEHRLVTVTRMDGHILEAEFPGLPEALSFVALVDGYFRLICDSRHYFCKEVAPPRLLEEEAELCHGPITLDFAIHKLKAAGSLPGTYILRRSPQDYDSFLLTACVQTPLGPDYKGCLIRQDPSGAFSLVGLSQPHRSLRELLAACWNSGLRVDGAALNLTSCCAPRPKEKSNLIVVRRGCTPAPAPGCSPSCCALTQLSFHTIPTDSLEWHENLGHGSFTKIFRGRRREVVDGETHDSEVLLKVMDSRHRNCMESFLEAASLMSQVSYPHLVLLHGVCMAGDSIMVQEFVYLGAIDMYLRKRGHLVSASWKLQVTKQLAYALNYLEDKGLPHGNVSARKVLLAREGGDGNPPFIKLSDPGVSPTVLSLEMLTDRIPWVAPECLQEAQTLCLEADKWGFGATTWEVFSGGPAHITSLEPAKKLKFYEDQGQLPALKWTELAGLITQCMAYDPGRRPSFRAILRDLNGLITSDYELLSDPTPGIPSPRDELCGGAQLYACQDPAIFEERHLKYISLLGKGNFGSVELCRYDPLGDNTGPLVAVKQLQHSGPDQQRDFQREIQILKALHSDFIVKYRGVSYGPGRQSLRLVMEYLPSGCLRDFLQRHRARLHTDRLLLFAWQICKGMEYLGARRCVHRDLAARNILVESEAHVKIADFGLAKLLPLGKDYYVVREPGQSPIFWYAPESLSDNIFSRQSDVWSFGVVLYELFTYCDKSCSPSAEFLRMMGPEREGPPLCRLLELLAEGRRLPPPPTCPTEVQELMQLCWAPSPHDRPAFGTLSPQLDALWRGRPG

Biological target: T1, Receptor-interacting serine/threonine-protein kinase 1 (mouse (endogenous in MLE-12))
Assay: co-IP; endogenous proteins in MLE-12 lysate (cells stimulated with 1 ug/mL LPS for 24 h; also with or without siRipk1 and LPS); 2000 ug total protein incubated overnight at 4 °C with anti-RIPK1 or anti-JAK1 or normal rabbit IgG, Protein A/G magnetic beads, five washes with IP lysis buffer, Western blot

Molecule | binding
JAK1 (from UniProt P52332 1-1153) | binds
TYK2 (from UniProt Q9R117 1-1184) | no binding
JAK2 (from UniProt Q62120 1-1132) | no binding
B1 | no binding
